For one substance, binding results are on record in article PMC5860104.

This test deals with T1, GST-PI4KIIαK152A (human) (UniProt Q9BTU6).
T1 sequence: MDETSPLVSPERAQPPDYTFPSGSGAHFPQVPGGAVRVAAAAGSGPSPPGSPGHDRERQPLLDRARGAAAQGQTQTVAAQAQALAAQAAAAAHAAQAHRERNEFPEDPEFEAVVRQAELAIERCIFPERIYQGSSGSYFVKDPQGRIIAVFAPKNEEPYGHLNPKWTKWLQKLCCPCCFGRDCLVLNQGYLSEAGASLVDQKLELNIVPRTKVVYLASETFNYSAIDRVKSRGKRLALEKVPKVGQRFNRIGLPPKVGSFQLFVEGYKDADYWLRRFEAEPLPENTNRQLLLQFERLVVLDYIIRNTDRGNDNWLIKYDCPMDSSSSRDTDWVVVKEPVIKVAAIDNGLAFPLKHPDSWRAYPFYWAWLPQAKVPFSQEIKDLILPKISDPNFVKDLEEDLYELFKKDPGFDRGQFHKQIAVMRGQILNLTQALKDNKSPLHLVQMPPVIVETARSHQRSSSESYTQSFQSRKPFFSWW
Description: pull-down; GST pull-down: lysate (RIPA buffer) of MCF-7 cells transfected with GFP-PKD for 24 h, pulled down with exogenous GST, GST-PI4KIIα WT or GST-PI4KIIαK152A expressed in E. coli; only the target purified.

These are yes or no findings as the source states them, for the method shown. In cells and extracts the contact can be indirect. Binding can be weak; no strength is given. Sequences can lack the tags named with a protein.

human GFP-tagged PKD (enzyme): the binding entry was “binds weakly”.
